PubChem BioAssay AID743121 | NCATS, 2013

Test: 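Knock-downs that sensitise breast cancer cells to camptothecin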 (primary screen)
Cell system: MDA-MB-231 cells, a human breast cancer line
Reagents: single siRNA against human genes, 20 nM siRNA (0.8 pmol per well)
Time to read-out: 120 h (drug added 48 h after transfection, read 72 h later)
Conditions: camptothecin 20 nM (about EC30) for 72 h; vehicle 0.1% DMSO in parallel plates
Read-out: 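CellTiter-Glo ATP signal, scaled to control siRNA as percent viability; sensitisation given as log2 of untreated divided by camptothecin-treated viability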
Scale: log2 vehicle/camptothecin viability: higher = stronger sensitisation to camptothecin; viability with camptothecin and viability without drug: higher = more viable cells
Rule for the call: 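Active genes have an RSA gene-level p-value below 0.001, computed from the ratios of their separate siRNAs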
Shown is one part, drawn at random, of about 26,000 deposited reagents. Of all reagents, 167 (0.63%) were called active. 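Calls are per gene from RSA p-values that are not deposited; an individual active-marked siRNA can sensitise only weakly.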

| gene symbol | PubChem SID | log2 vehicle/camptothecin viability | viability with camptothecin (% of control) | viability without drug (% of control) | Call |
| --- | --- | --- | --- | --- | --- |
| CYP7B1 (GeneID 9420) | SID164403677 | 0.188 | 58.8 | 67 | inactive |
| CYP7B1 (GeneID 9420) | SID164403678 | -0.101 | 102 | 95.1 | inactive |
| CYP7B1 (GeneID 9420) | SID164403680 | 0.0677 | 62.2 | 65.1 | inactive |
| CYP7B1 (GeneID 9420) | SID164403681 | 0.369 | 67.1 | 86.6 | inactive |
| CYP3A7 (GeneID 1551) | SID164360701 | -0.245 | 122 | 103 | inactive |
| CYP3A7 (GeneID 1551) | SID164360702 | 0.0583 | 87 | 90.6 | inactive |
| CYP3A7 (GeneID 1551) | SID164360703 | -0.118 | 82.8 | 76.2 | inactive |
| CYP3A7 (GeneID 1551) | SID164360704 | -0.0828 | 80.1 | 75.7 | inactive |
| IL17D (GeneID 53342) | SID164476374 | -0.117 | 39.2 | 36.2 | inactive |
| IL17D (GeneID 53342) | SID164476376 | 0.0188 | 55.7 | 56.5 | inactive |
| IL17D (GeneID 53342) | SID164476377 | -0.237 | 56.8 | 48.1 | inactive |
| IL17D (GeneID 53342) | SID164476379 | -0.292 | 83.8 | 68.4 | inactive |
| PRSS50 (GeneID 29122) | SID164465283 | -0.284 | 104 | 85.4 | inactive |
| PRSS50 (GeneID 29122) | SID164465284 | 0.282 | 57 | 69.4 | inactive |
| PRSS50 (GeneID 29122) | SID164465287 | -0.165 | 108 | 96.2 | inactive |
| PRSS50 (GeneID 29122) | SID164465289 | -0.184 | 66.3 | 58.3 | inactive |
| HSD17B12 (GeneID 51144) | SID164472207 | -0.237 | 81.1 | 68.8 | inactive |
| HSD17B12 (GeneID 51144) | SID164472208 | 0.227 | 90 | 105 | inactive |
| HSD17B12 (GeneID 51144) | SID164472210 | -0.13 | 83.1 | 76 | inactive |
| HSD17B12 (GeneID 51144) | SID164472211 | 0.0036 | 90 | 90.3 | inactive |
| QARS1 (GeneID 5859) | SID164384296 | -0.24 | 56.7 | 48 | inactive |
| QARS1 (GeneID 5859) | SID164384297 | -0.285 | 50.6 | 41.5 | inactive |
| QARS1 (GeneID 5859) | SID164384298 | -0.276 | 68 | 56.2 | inactive |
| QARS1 (GeneID 5859) | SID164384300 | -0.306 | 75.8 | 61.3 | inactive |
| UBR1 (GeneID 197131) | SID164585026 | -0.14 | 30.6 | 27.8 | inactive |
| UBR1 (GeneID 197131) | SID164585030 | 0.183 | 76.1 | 86.4 | inactive |
| UBR1 (GeneID 197131) | SID164585031 | -0.0779 | 97 | 91.9 | inactive |
| NMI (GeneID 9111) | SID164401774 | -0.245 | 64.8 | 54.7 | inactive |
| NMI (GeneID 9111) | SID164401775 | 0.416 | 37.7 | 50.3 | inactive |
| NMI (GeneID 9111) | SID164401778 | 0.0549 | 73.2 | 76 | inactive |
| NMI (GeneID 9111) | SID164401781 | -0.196 | 87.8 | 76.6 | inactive |
| MAPK12 (GeneID 6300) | SID164386955 | 0.785 | 37.8 | 65.1 | inactive |
| MAPK12 (GeneID 6300) | SID164386959 | -0.481 | 61.2 | 43.9 | inactive |
| MAPK12 (GeneID 6300) | SID164386961 | -0.198 | 44.4 | 38.7 | inactive |
| MAPK12 (GeneID 6300) | SID164386963 | 0.382 | 59.9 | 78 | inactive |
| SGK1 (GeneID 6446) | SID164387825 | 0.0228 | 87.6 | 89 | inactive |
| SGK1 (GeneID 6446) | SID164387826 | -0.257 | 127 | 106 | inactive |
| SGK1 (GeneID 6446) | SID164387827 | 0.207 | 86.4 | 99.7 | inactive |
| SGK1 (GeneID 6446) | SID164387828 | -0.271 | 77.2 | 64 | inactive |
| PRP4K (GeneID 8899) | SID164400637 | -0.897 | 121 | 65.1 | inactive |
| PRP4K (GeneID 8899) | SID164400641 | -0.583 | 96.6 | 64.5 | inactive |
| PRP4K (GeneID 8899) | SID164400644 | -0.531 | 59 | 40.9 | inactive |
| PRP4K (GeneID 8899) | SID164400645 | -0.513 | 68 | 47.7 | inactive |
| RTP4 (GeneID 64108) | SID164501201 | 0.178 | 69.7 | 78.8 | inactive |
| RTP4 (GeneID 64108) | SID164501202 | -0.179 | 111 | 97.9 | inactive |
| RTP4 (GeneID 64108) | SID164501205 | 0.172 | 41.8 | 47.1 | inactive |
| RTP4 (GeneID 64108) | SID164501207 | -0.203 | 123 | 106 | inactive |
| ACAD10 (GeneID 80724) | SID164536457 | 0.0805 | 95.6 | 101 | inactive |
| ACAD10 (GeneID 80724) | SID164536461 | -0.4 | 51 | 38.6 | inactive |
| ACAD10 (GeneID 80724) | SID164536462 | -0.0891 | 94.8 | 89.1 | inactive |
| ACAD10 (GeneID 80724) | SID164536463 | -0.122 | 78.5 | 72.1 | inactive |
| CHAF1B (GeneID 8208) | SID164396492 | -0.224 | 53.2 | 45.6 | inactive |
| CHAF1B (GeneID 8208) | SID164396494 | -0.377 | 24.6 | 19 | inactive |
| CHAF1B (GeneID 8208) | SID164396496 | 0.13 | 77.9 | 85.3 | inactive |
| TXNL4A (GeneID 10907) | SID164414185 | -0.219 | 117 | 101 | inactive |
| TXNL4A (GeneID 10907) | SID164414186 | -0.631 | 86.8 | 56.1 | inactive |
| TXNL4A (GeneID 10907) | SID164414187 | -0.31 | 50 | 40.3 | inactive |
| TXNL4A (GeneID 10907) | SID164414188 | -0.354 | 50.2 | 39.3 | inactive |
| RAB11A (GeneID 8766) | SID164399708 | -0.206 | 45.3 | 39.3 | inactive |
| RAB11A (GeneID 8766) | SID164399709 | 0.235 | 87.5 | 103 | inactive |
| RAB11A (GeneID 8766) | SID164399713 | -0.18 | 90.3 | 79.7 | inactive |
| RAB11A (GeneID 8766) | SID164399716 | -0.0889 | 96.5 | 90.7 | inactive |
| TUBE1 (GeneID 51175) | SID164472390 | 0.0417 | 91.9 | 94.6 | inactive |
| TUBE1 (GeneID 51175) | SID164472391 | 0.0991 | 98.4 | 105 | inactive |
| TUBE1 (GeneID 51175) | SID164472392 | 0.947 | 3.64 | 7.01 | inactive |
| TUBE1 (GeneID 51175) | SID164472396 | -0.511 | 95.6 | 67.1 | inactive |
| ADGRA2 (GeneID 25960) | SID164458000 | -0.332 | 139 | 110 | inactive |
| ADGRA2 (GeneID 25960) | SID164458001 | 1.43 | 21.8 | 58.7 | inactive |
| ADGRA2 (GeneID 25960) | SID164458006 | 0.113 | 68.1 | 73.6 | inactive |
| ADGRA2 (GeneID 25960) | SID164458008 | 0.0938 | 66.7 | 71.2 | inactive |

Reprinted from above (4 entries):
| gene symbol | PubChem SID | log2 vehicle/camptothecin viability | viability with camptothecin (% of control) | viability without drug (% of control) | Call |
| --- | --- | --- | --- | --- | --- |
| NMI (GeneID 9111) | SID164401775 | 0.416 | 37.7 | 50.3 | inactive |
| NMI (GeneID 9111) | SID164401778 | 0.0549 | 73.2 | 76 | inactive |
| NMI (GeneID 9111) | SID164401781 | -0.196 | 87.8 | 76.6 | inactive |
| MAPK12 (GeneID 6300) | SID164386955 | 0.785 | 37.8 | 65.1 | inactive |
